Assay results taken from patent publication US12501917B2, “Methods and compositions for treating intestinal disorder” (MARS, INCORPORATED, priority 2019, dated 2025).
At least one structure is not confirmed: it was looked up by name or label, or the drawing left a doubt.

Tested on: canine clinical isolates of E. coli
Experiment: In vitro bacterial growth inhibition assay, E. coli
Format: cell-based
Conditions: isolate (n=1) from dogs with active disease; deoxycholic acid by microbroth dilution OD630, lithocholic acid by colony counts on agar

| Structure (SMILES) | inhibition of in vitro growth of E. coli |
| --- | --- |
| C[C@H](CCC(=O)O)[C@H]1CC[C@H]2[C@@H]3CC[C@@H]4C[C@H](O)CC[C@]4(C)[C@H]3CC[C@]12C [lithocholic acid] | blocked the growth |
| C[C@H](CCC(=O)O)[C@H]1CC[C@H]2[C@@H]3CC[C@@H]4C[C@H](O)CC[C@]4(C)[C@H]3C[C@H](O)[C@]12C [deoxycholic acid] | blocked the growth |
